Data as given in PubChem BioAssay AID1224828 (NIAID, 2016).

- Purpose: 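Regulators linking TLR4 signalling to p65 nuclear translocation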 (primary screen)
- System: mouse RAW264.7 G9 macrophage reporter cells (GFP-p65, Tnf promoter-mCherry)
- Knock-down reagent: siRNA pool against mouse genes, 100 nM
- Time to read-out: 2 days siRNA transfection, then 40 min LPS before fixation
- Conditions: LPS (Salmonella minnesota R595) at 10 ng/ml
- Read-out: 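Imaged p65 nuclear translocation ratio, normalised to the plate median, converted to robust z-scores and averaged across two replicates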
- Direction: p65 translocation robust z-score: higher = more nuclear NF-kappaB p65 after LPS than the plate median; nuclear/cytoplasmic p65 ratio: higher = more nuclear NF-kappaB p65
- Rule for the call: 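Active if robust z is above 3.3 (negative regulators) or below -1.56, the Tlr4 control median (positive regulators); activity score 50 or more; control wells not called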
- Calls: active = hit (p65 shift raised or lowered); inactive = no clear change
The deposit covers about 17,000 reagents; this is a random part of them. In the full data, 762 (4.5%) are marked active. 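Active calls include both raised and lowered p65 entry, mostly lowered; wells with fewer than 50 cells lack a z-score.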 Raw values are not corrected between plates. Reagent sequences are not shown.

For Cops8 (GeneID 108679) the deposit lists p65 translocation robust z-score 1.1; nuclear/cytoplasmic p65 ratio, rep 1 = 1.7; nuclear/cytoplasmic p65 ratio, rep 2 = 2; low cell count flag enough cells to score; inactive.
With knock-down of Mthfr (GeneID 17769), the record shows p65 translocation robust z-score -0.53; nuclear/cytoplasmic p65 ratio, rep 1 = 1.27; nuclear/cytoplasmic p65 ratio, rep 2 = 1.28; low cell count flag enough cells to score; inactive.
Isl1 (GeneID 16392) scored p65 translocation robust z-score -1.47; nuclear/cytoplasmic p65 ratio, rep 1 = 1.27; nuclear/cytoplasmic p65 ratio, rep 2 = 1.24; low cell count flag enough cells to score; inactive.
Efcab9 (GeneID 69306) gave p65 translocation robust z-score 1.89; nuclear/cytoplasmic p65 ratio, rep 1 = 1.89; nuclear/cytoplasmic p65 ratio, rep 2 = 1.66; low cell count flag enough cells to score; inactive.
Silencing of Swi5 (GeneID 72931) resulted in: p65 translocation robust z-score 1.05; nuclear/cytoplasmic p65 ratio, rep 1 = 1.35; nuclear/cytoplasmic p65 ratio, rep 2 = 1.38; low cell count flag enough cells to score; inactive.
For Mcpt9 (GeneID 17232), the values are p65 translocation robust z-score -0.89; nuclear/cytoplasmic p65 ratio, rep 1 = 1.57; nuclear/cytoplasmic p65 ratio, rep 2 = 1.42; low cell count flag enough cells to score; inactive.
Mto1 (GeneID 68291) gave p65 translocation robust z-score -1.58; nuclear/cytoplasmic p65 ratio, rep 1 = 1.55; nuclear/cytoplasmic p65 ratio, rep 2 = 1.34; low cell count flag enough cells to score; active.
Knock-down of Med30 (GeneID 69790) gave: p65 translocation robust z-score -0.95; nuclear/cytoplasmic p65 ratio, rep 1 = 1.24; nuclear/cytoplasmic p65 ratio, rep 2 = 1.02; low cell count flag enough cells to score; inactive.
For Trim45 (GeneID 229644), the values are nuclear/cytoplasmic p65 ratio, rep 1 = 1.34; nuclear/cytoplasmic p65 ratio, rep 2 = 1.24; low cell count flag fewer than 50 cells per well; well left out of scoring; inactive.

In a second layout: results already given.
| Gene | p65 translocation robust z-score | nuclear/cytoplasmic p65 ratio, rep 1 | nuclear/cytoplasmic p65 ratio, rep 2 | low cell count flag | activity call |
| --- | --- | --- | --- | --- | --- |
| Med30 (GeneID 69790) | -0.95 | 1.24 | 1.02 | enough cells to score | inactive |
| Trim45 (GeneID 229644) | – | 1.34 | 1.24 | fewer than 50 cells per well; well left out of scoring | inactive |

The list goes on:
Park7 (GeneID 57320) scored p65 translocation robust z-score -0.63; nuclear/cytoplasmic p65 ratio, rep 1 = 1.38; nuclear/cytoplasmic p65 ratio, rep 2 = 1.31; low cell count flag enough cells to score; inactive.
For Nop14 (GeneID 75416), the values are nuclear/cytoplasmic p65 ratio, rep 1 = 1.41; nuclear/cytoplasmic p65 ratio, rep 2 = 1.4; low cell count flag fewer than 50 cells per well; well left out of scoring; inactive.
After knock-down of Ss18 (GeneID 268996) the results were p65 translocation robust z-score -0.99; nuclear/cytoplasmic p65 ratio, rep 1 = 1.42; nuclear/cytoplasmic p65 ratio, rep 2 = 1.39; low cell count flag enough cells to score; inactive.
Against Mcm4 (GeneID 17217) the deposit lists p65 translocation robust z-score -0.17; nuclear/cytoplasmic p65 ratio, rep 1 = 1.41; nuclear/cytoplasmic p65 ratio, rep 2 = 1.33; low cell count flag enough cells to score; inactive.
For Ccdc93 (GeneID 70829), the values are nuclear/cytoplasmic p65 ratio, rep 1 = 1.55; nuclear/cytoplasmic p65 ratio, rep 2 = 1.27; low cell count flag fewer than 50 cells per well; well left out of scoring; inactive.
With knock-down of Skint11 (GeneID 230623) the results were p65 translocation robust z-score -0.39; nuclear/cytoplasmic p65 ratio, rep 1 = 1.35; nuclear/cytoplasmic p65 ratio, rep 2 = 1.45; low cell count flag enough cells to score; inactive.
Silencing of Art1 (GeneID 11870) resulted in: p65 translocation robust z-score 0.08; nuclear/cytoplasmic p65 ratio, rep 1 = 1.56; nuclear/cytoplasmic p65 ratio, rep 2 = 1.7; low cell count flag enough cells to score; inactive.
With knock-down of Bckdhb (GeneID 12040), the record shows p65 translocation robust z-score 0.15; nuclear/cytoplasmic p65 ratio, rep 1 = 1.59; nuclear/cytoplasmic p65 ratio, rep 2 = 1.69; low cell count flag enough cells to score; inactive.
With knock-down of Maged2 (GeneID 80884), the record shows p65 translocation robust z-score 1; nuclear/cytoplasmic p65 ratio, rep 1 = 1.81; nuclear/cytoplasmic p65 ratio, rep 2 = 1.75; low cell count flag enough cells to score; inactive.
After knock-down of Thbs4 (GeneID 21828) the results were p65 translocation robust z-score -0.34; nuclear/cytoplasmic p65 ratio, rep 1 = 1.46; nuclear/cytoplasmic p65 ratio, rep 2 = 1.48; low cell count flag enough cells to score; inactive.
Tbx15 (GeneID 21384) gave p65 translocation robust z-score -0.26; nuclear/cytoplasmic p65 ratio, rep 1 = 1.31; nuclear/cytoplasmic p65 ratio, rep 2 = 1.18; low cell count flag enough cells to score; inactive.
Against Rab23 (GeneID 19335), the values are p65 translocation robust z-score -0.23; nuclear/cytoplasmic p65 ratio, rep 1 = 1.57; nuclear/cytoplasmic p65 ratio, rep 2 = 1.4; low cell count flag enough cells to score; inactive.
